## Microarray screen: hit calls

From ROBIN, a set of small-molecule microarray screens (doi:10.1002/anie.202211358).

Oligonucleotides screened, 5′ to 3′:
PreQ1: PreQ1 riboswitch RNA pseudoknot, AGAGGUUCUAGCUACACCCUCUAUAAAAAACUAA. From B. subtilis. About 24,000 compounds screened, about 170 hits.
SAM-II: SAM-II riboswitch RNA pseudoknot, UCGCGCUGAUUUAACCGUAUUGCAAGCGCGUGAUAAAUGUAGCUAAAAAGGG. About 21,000 compounds screened, about 200 hits.
TPP: TPP riboswitch RNA three-way junction, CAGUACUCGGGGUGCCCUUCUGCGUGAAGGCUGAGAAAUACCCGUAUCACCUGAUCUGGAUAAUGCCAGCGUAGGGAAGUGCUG. About 24,000 compounds screened, about 160 hits.

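Compounds were printed on reactive glass slides in duplicate spots, a dye-labelled oligonucleotide was laid over them, and the fluorescence left after washing was read. For the PreQ1, TPP and SAM-II riboswitches the laboratory earlier reported (doi:10.1038/s41467-019-09493-3) 1 µM RNA, 2 h, and a rule that included a mean Z-score above 3 (spot signal-to-noise against the whole library), a score well above that on a control array, and duplicate spots agreeing (coefficient of variation under 100). The data file gives only the calls; its cut-offs may differ, and compounds hitting several targets are kept. A missing hit is not proof of no binding, and a hit is not a measured affinity.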
A compound is marked hit if it was called a hit and no hit if it was screened but was not.
Compounds were drawn at random from those tested, without regard to their results.
A dash means that no call is listed here.

structure,PreQ1,SAM-II,TPP
CCCOc1ccc(-c2nc(-c3ccc(N)cc3)cs2)cc1,no hit,hit,no hit
Cc1nc2ccccc2n1CC(O)COc1ccccc1Cl (configuration not stated),no hit,-,no hit
Cc1ccc(C(=O)Nc2ccc(S(=O)(=O)O)c3cc(S(=O)(=O)O)cc(S(=O)(=O)O)c23)cc1NC(=O)c1cccc(NC(=O)Nc2cccc(C(=O)Nc3cc(C(=O)Nc4ccc(S(=O)(=O)O)c5cc(S(=O)(=O)O)cc(S(=O)(=O)O)c45)ccc3C)c2)c1,no hit,no hit,no hit
Cc1cc(C)c2c(N)c(-c3nc(-c4ccc(C(F)(F)F)cc4)no3)sc2n1,no hit,no hit,no hit
COc1ccc(Cl)c(Cn2c(NCCN)nc3c2c(=O)n(C)c(=O)n3C)c1,no hit,-,no hit
Cc1cc(NS(=O)(=O)c2ccc(Nc3nc(-c4c(C)nc5ccccn45)cs3)cc2)no1,no hit,no hit,no hit
Cc1nc2c(c(N3C[C@H](OC(C)C)[C@@H](O)C3)n1)CNC2,no hit,no hit,no hit
Nc1nc(CCC(=O)N2CCN(C3CCc4ccccc4C3)CC2)n[nH]1 (configuration not stated),no hit,no hit,no hit
C=CC(=O)Nc1cccc(Nc2nc(NC3CCC(N(C)C)CC3)nc3c2ncn3C(C)C)c1 (configuration not stated),hit,hit,hit
O=C(O)c1cc(NCc2cccc(OCc3ccccc3F)c2)ccc1N1CCOCC1,no hit,no hit,no hit
Cc1nc2cc(C(=O)N(CC=Cc3ccccc3)CCO)ccc2[nH]1,no hit,no hit,no hit
Cc1ccsc1CCNCC1(O)CCCN(CC2CCCCC2)C1=O (configuration not stated),no hit,no hit,no hit
Nc1ccc2c(=O)n(Cc3ccccc3F)cnc2c1,no hit,no hit,no hit
CCC(Nc1cccc(OC)c1)C(=O)NCc1cc2ccccc2[nH]1 (configuration not stated),no hit,no hit,no hit
NC1=C(c2nc3ccccc3c(=O)[nH]2)C(=O)CN1c1cccc(Cl)c1Cl,no hit,no hit,no hit
NC(=O)c1ccccc1NC(=O)c1ccccc1Cl,no hit,no hit,no hit
COc1ccc(CCNCC(O)COc2ccc(Cl)cc2)cc1OC.Cl (configuration not stated),no hit,no hit,no hit
NC(=O)c1cnc(-c2ccc(C3(N)CCC3)cc2)c(-c2ccccc2)c1,no hit,no hit,no hit
C=CCn1c(S)nnc1C(CCCC)CC(O)COCCC (configuration not stated),no hit,no hit,no hit
CC(C)NC(=O)[C@@H]1C[C@H](N)CN1S(=O)(=O)c1cc2ccccc2o1,no hit,no hit,no hit
O=C(COc1ccc(Cl)cc1Cl)NCCO,no hit,no hit,no hit
Cc1cc(C(=O)N2C[C@H](c3ccccc3)[C@@H](N)C2)nc2[nH][nH]c(=O)c12,no hit,no hit,no hit
CCc1nc2sc(C(=O)c3ccc(F)cc3)c(N)c2cc1C,no hit,no hit,no hit
CNc1oc(-c2ccc(F)cc2)nc1S(=O)(=O)c1ccc(Cl)cc1,no hit,-,no hit
CCNC(=O)[C@@H]1C[C@H](NC(=O)c2cnn(C)c2)CN1Cc1cccnc1N,no hit,no hit,no hit
N#CC1=C(N)OC2=C(C1c1cccnc1)S(=O)(=O)N(Cc1ccc(Cl)cc1)c1ccccc12 (configuration not stated),no hit,no hit,no hit
CC(=O)c1ccccc1OCC(O)Cn1ccnc1C (configuration not stated),no hit,no hit,no hit
CC1(C)CC(=O)C=C(Nc2cc(-c3ccc(Cl)cc3)n[nH]2)C1,no hit,no hit,no hit
CCCC(C)C1C(C#N)=C(N)OC2=C1C(=O)CC(C)(C)C2 (configuration not stated),no hit,no hit,no hit
N#Cc1cccc(Cn2cc(CCN)nn2)c1,no hit,no hit,no hit
Cc1cccc(Nc2nc(N3CCOCC3)c3ccccc3n2)c1,no hit,no hit,no hit
COc1cc(OC)c(C=CS(=O)(=O)Cc2ccc(OC)c(NCC(=O)[O-])c2)c(OC)c1.[Na+],no hit,no hit,no hit
CCn1c2ccccc2c2cc(NC(=O)Nc3ccc([N+](=O)[O-])cc3C)ccc21,no hit,no hit,no hit
CC(=O)c1ccc(Nc2cc(-c3ccccc3)nc(C)n2)cc1,no hit,-,no hit
O=C(c1ccccc1)N1CCN(CC(O)Cn2ccc3ccccc32)CC1 (configuration not stated),no hit,no hit,no hit
CCCCNc1cc(Cl)nc(N)n1,no hit,no hit,no hit
O=C(NCCc1nc(Cc2ccccc2)no1)C1CNCCO1 (configuration not stated),no hit,no hit,no hit
Cc1nc2nc(CN3CCCCC(N)C3)cc(O)n2n1 (configuration not stated),no hit,no hit,no hit
CC1(C)Cc2cc(CNc3nc(N)nc4c3CCNCC4)ccc2O1,no hit,no hit,no hit
Cc1cccc(Nc2nc3nonc3nc2N2CCOCC2)c1C,no hit,-,no hit
COc1ccc(-c2ccc3c(N)c(C(=O)Nc4ccccc4OC)sc3n2)cc1,no hit,no hit,no hit
COc1cc(-c2ccc(Nc3ccccc3C(=O)O)c(OC)c2)ccc1Nc1ccccc1C(=O)O,no hit,no hit,no hit
O=C(O)c1ccccc1C(=O)Nc1cccc([N+](=O)[O-])c1,no hit,no hit,no hit
CCOc1ccc(OCc2ncc(S(C)(=O)=O)c(C3CCCNC3)n2)cc1 (configuration not stated),no hit,no hit,no hit
C[C@]12CC[C@H](O)CC1=CC[C@@H]1[C@@H]2CC[C@]2(C)c3n[nH]cc3C[C@@H]12,no hit,no hit,no hit
CN1CCc2[nH]nc(C(=O)N3CCNCC(C(=O)O)C3)c2C1 (configuration not stated),no hit,no hit,no hit
COc1ccc(C(=O)CC(=O)c2ccc(C(C)(C)C)cc2)cc1,no hit,no hit,no hit
CSc1nc(NC(C)(C)C)c(C#N)c(-c2ccc(Cl)cc2)n1,no hit,-,no hit
O=C(CNC(=O)c1ccc2nc(-n3cccc3)sc2c1)NCCO,no hit,no hit,no hit
Cc1nn(-c2nc3ccccc3s2)c(N)c1-c1ccccc1,no hit,no hit,no hit
S=c1[nH]cnc2c1cnn2-c1ccccc1,no hit,no hit,no hit
OC(Cn1cnc(-c2ccccc2)c1-c1ccc(-c2ccn[nH]2)o1)c1cccnc1 (configuration not stated),no hit,no hit,no hit
Cc1ccccc1NC(=O)N1C[C@@H](O)[C@H](NCCN2CCNC2=O)C1,no hit,no hit,no hit
CC(c1ccccc1)n1c(CCCO)nc2ccccc21 (configuration not stated),no hit,no hit,no hit
OCc1nnn(-c2ccccc2)c1CO,no hit,no hit,no hit
c1cc(CNCc2cccc3[nH]ccc23)c2cc[nH]c2c1,no hit,no hit,no hit
O=C1Nc2ccccc2NC12CCN(c1ncnc3c1CCNC3)CC2,no hit,no hit,no hit
Nc1nnc(COc2ccccc2)s1,no hit,no hit,no hit
COc1c(F)cc(CN2CCCC(O)(CO)CC2)cc1F (configuration not stated),no hit,no hit,no hit
Cc1csc(C2=C(N)N(c3ccc4c(c3)OCO4)CC2=O)n1,no hit,-,no hit
CCCCNc1cc(C)nc2c(-c3ccccc3OC)cnn12,no hit,-,no hit